PubChem BioAssay AID256 (DTP/NCI, 2004)
The list does not hold the whole screen: it gathers tests that were run many times, whatever their T/C, doses with no T/C, and many T/C values between a quarter and a half above the control. Further doses and runs are listed elsewhere. T/C is the treated group as % of the vehicle group. Some doses have a count of surviving animals in place of a T/C: the source holds a T/C of zero for them, seemingly a mark for toxic or unscored doses. Some doses without a T/C left all or most animals alive at the check, yet need not have been tolerated: the source hardly ever lists a survival T/C far under the control, and the zero likely stands for such cases as well. Counts of survivors are from the toxicity check (mostly the fifth day) where no day follows; animals may have died later. Schedule codes are those of the source, read here as Q, the interval in days (D) or hours (H), X, the number of doses. Some molecules as drawn cover several salts, stereoisomers or complexes of the source; a dose is that of the sample tested. Some doses were run more than once; their values stand side by side, smallest first. For survival time, the PubChem record calls one and a half times the control and up active, and a quarter to a half above the control has no call in these data; cut-offs in other NCI protocols can differ. Some T/C values are followed by the survivors on the day toxicity was checked, most often the fifth; without a count, all were alive then.

Tested on: CD2F1 mice, L1210 leukemia ip, survival T/C
Test: NCI In Vivo Anticancer Drug Screen. Data for tumor model L1210 Leukemia (intraperitoneal) in CD2F1 (CDF1) mice
Conditions: higher T/C = longer survival
In short: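 Activity against a transplanted murine tumor was judged by comparing the compound group with a vehicle group. The outcome in the treated animals was divided by that in the controls.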

[1] = T/C endpoint: mean survival time, dose: 50.0 mg/kg/injection, schedule: Q01DX009 (ip), vehicle: saline with Tween-80
[2] = T/C endpoint: mean survival time, dose: 100.0 mg/kg/injection, schedule: Q01DX009 (ip), vehicle: saline with Tween-80
[3] = T/C endpoint: mean survival time, dose: 200.0 mg/kg/injection, schedule: Q01DX009 (ip), vehicle: saline with Tween-80
[4] = T/C endpoint: mean survival time, dose: 400.0 mg/kg/injection, schedule: Q01DX009 (ip), vehicle: saline with Tween-80
[5] = T/C endpoint: median survival time, dose: 16.0 mg/kg/injection, schedule: Q01DX009 (ip), vehicle: water

Structure (SMILES): CC(=O)Nc1ccc(Nc2ccc(C(=C3C=CC(=[N+](C)CCC#N)C=C3)c3ccc(N(C)CCC#N)cc3)cc2)cc1
- survivor count [1]: 1 of 6 and 6 of 6
- survivor count [2]: 0 of 6 and 2 of 6
- T/C (T/C endpoint: mean survival time, dose: 100.0 mg/kg/injection, schedule: Q04DX002 (ip), vehicle: saline with Tween-80): 128 % of control [2 of 3 alive]
- survivor count [3]: 0 of 6
- survivor count [4]: 0 of 6
- survivor count (T/C endpoint: mean survival time, dose: 400.0 mg/kg/injection, schedule: Q04DX002 (ip), vehicle: saline with Tween-80): 1 of 3

Structure (SMILES): CCN(CC)CCNc1ccc(CO)c2sc3ccccc3c(=O)c12
- T/C (T/C endpoint: mean survival time, dose: 16.0 mg/kg/injection, schedule: Q01DX009 (ip), vehicle: saline): 129 % of control
- T/C (T/C endpoint: mean survival time, dose: 16.0 mg/kg/injection, schedule: Q01DX009 (sc), vehicle: saline): 125 % of control
- T/C (T/C endpoint: mean survival time, dose: 32.0 mg/kg/injection, schedule: Q01DX009 (ip), vehicle: saline): 146 % of control
- T/C (T/C endpoint: mean survival time, dose: 32.0 mg/kg/injection, schedule: Q01DX009 (sc), vehicle: saline): 140 % of control
- T/C (T/C endpoint: mean survival time, dose: 32.0 mg/kg/injection, schedule: Q03HX008 (ip), vehicle: saline): 134 % of control
- T/C (T/C endpoint: mean survival time, dose: 64.0 mg/kg/injection, schedule: Q04DX003 (ip), vehicle: saline): 125 % of control
- T/C (T/C endpoint: mean survival time, dose: 128.0 mg/kg/injection, schedule: Q01DX009 (oral), vehicle: saline): 148 % of control
- T/C (T/C endpoint: mean survival time, dose: 128.0 mg/kg/injection, schedule: Q04DX003 (ip), vehicle: saline): 138 % of control
- survivor count (T/C endpoint: mean survival time, dose: 180.0 mg/kg/injection, schedule: Q01DX009 (ip), vehicle: acetone): 4 of 6
- survivor count (T/C endpoint: mean survival time, dose: 256.0 mg/kg/injection, schedule: Q01DX009 (ip), vehicle: saline): 3 of 10
- survivor count (T/C endpoint: mean survival time, dose: 256.0 mg/kg/injection, schedule: Q01DX009 (sc), vehicle: saline): 0 of 10
- survivor count (T/C endpoint: mean survival time, dose: 256.0 mg/kg/injection, schedule: Q04DX003 (ip), vehicle: saline): 6 of 10
- T/C (T/C endpoint: mean survival time, dose: 256.0 mg/kg/injection, schedule: Q08DX002 (ip), vehicle: saline): 134 % of control
- T/C (T/C endpoint: mean survival time, dose: 264.0 mg/kg/injection, schedule: Q01DX001 (ip), vehicle: acetone): 137 % of control
- survivor count (T/C endpoint: mean survival time, dose: 264.0 mg/kg/injection, schedule: Q01DX009 (ip), vehicle: acetone): 1 of 6
- survivor count (T/C endpoint: mean survival time, dose: 400.0 mg/kg/injection, schedule: Q01DX009 (ip), vehicle: acetone): 0 of 6
- survivor count (T/C endpoint: mean survival time, dose: 512.0 mg/kg/injection, schedule: Q01DX001 (ip), vehicle: saline): 0 of 10
- T/C (T/C endpoint: mean survival time, dose: 512.0 mg/kg/injection, schedule: Q01DX001 (sc), vehicle: saline): 135 % of control
- survivor count (T/C endpoint: mean survival time, dose: 512.0 mg/kg/injection, schedule: Q01DX009 (oral), vehicle: saline): 3 of 10
- survivor count (T/C endpoint: mean survival time, dose: 512.0 mg/kg/injection, schedule: Q04DX003 (ip), vehicle: saline): 0 of 10
- survivor count (T/C endpoint: mean survival time, dose: 512.0 mg/kg/injection, schedule: Q08DX002 (ip), vehicle: saline): 0 of 10
- T/C (T/C endpoint: mean survival time, dose: 1024.0 mg/kg/injection, schedule: Q01DX001 (oral), vehicle: saline): 126 % of control
- survivor count (T/C endpoint: mean survival time, dose: 1024.0 mg/kg/injection, schedule: Q01DX009 (oral), vehicle: saline): 0 of 10
- survivor count (T/C endpoint: mean survival time, dose: 2048.0 mg/kg/injection, schedule: Q01DX001 (oral), vehicle: saline): 6 of 10
- T/C (T/C endpoint: median survival time, dose: 20.0 mg/kg/injection, schedule: Q01DX009 (ip), vehicle: water): 133 % of control
- T/C (T/C endpoint: median survival time, dose: 80.0 mg/kg/injection, schedule: Q01DX009 (ip), vehicle: water): 141 % of control

Structure (SMILES): Cc1cc(NCCN(C(C)C)C(C)C)nc(Nc2nc3cc(Cl)c(Cl)cc3[nH]2)n1
- survivor count [1]: 1 of 6
- survivor count [2]: 0 of 6
- survivor count [3]: 0 of 6
- survivor count (T/C endpoint: mean survival time, dose: 200.0 mg/kg/injection, schedule: Q04DX003 (ip), vehicle: saline with Tween-80): 6 of 6
- survivor count (T/C endpoint: mean survival time, dose: 400.0 mg/kg/injection, schedule: Q04DX003 (ip), vehicle: saline with Tween-80): 5 of 6

Structure (SMILES): COC12C(COC(N)=O)C3=C(C(=O)C(C)=C(N4CC4C#N)C3=O)N1CC1NC12 (centres undefined)
- T/C (T/C endpoint: median survival time, dose: 0.75 mg/kg/injection, schedule: Q01DX001 (ip), vehicle: water): 134 % of control
- T/C (T/C endpoint: median survival time, dose: 1.5 mg/kg/injection, schedule: Q01DX001 (ip), vehicle: water): 138 % of control
- survivor count (T/C endpoint: median survival time, dose: 3.0 mg/kg/injection, schedule: Q01DX001 (ip), vehicle: water): 6 of 6
- survivor count (T/C endpoint: median survival time, dose: 6.0 mg/kg/injection, schedule: Q01DX001 (ip), vehicle: water): 0 of 6
- survivor count (T/C endpoint: median survival time, dose: 12.0 mg/kg/injection, schedule: Q01DX001 (ip), vehicle: water): 0 of 6

Structure (SMILES): CC1(O)C=CC(=O)C=C1
- survivor count (T/C endpoint: median survival time, dose: 100.0 mg/kg/injection, schedule: Q01DX009 (ip), vehicle: water): 0 of 6

Structure (SMILES): N=c1c2ccn(C3OC(CO)C(O)C3O)c2ncn1N (centres undefined)
- survivor count (T/C endpoint: mean survival time, dose: 200.0 mg/kg/injection, schedule: Q01DX005 (ip), vehicle: water): 2 of 6

Structure (SMILES): C[n+]1c(-c2cccc(OCCOCCOc3cccc(-c4c5cc(N)ccc5c5ccc(N)cc5[n+]4C)c3)c2)c2cc(N)ccc2c2ccc(N)cc21
- T/C (T/C endpoint: median survival time, dose: 4.0 mg/kg/injection, schedule: Q01DX009 (ip), vehicle: water): 132 % of control
- T/C (T/C endpoint: median survival time, dose: 8.0 mg/kg/injection, schedule: Q01DX009 (ip), vehicle: water): 129 % of control
- T/C [5]: 132 % of control
- survivor count [5]: 6 of 6
- survivor count (T/C endpoint: median survival time, dose: 32.0 mg/kg/injection, schedule: Q01DX009 (ip), vehicle: water): 6 of 6

Structure (SMILES): C1=C[N-]c2c3c(ccc2=C1)=CC=C[N-]3.C1=C[N-]c2c3c(ccc2=C1)=CC=C[N-]3.[Cl][Ru][Cl]
- survivor count (T/C endpoint: mean survival time, dose: 25.0 mg/kg/injection, schedule: Q04DX003 (ip), vehicle: water): 1 of 6
- survivor count (T/C endpoint: mean survival time, dose: 50.0 mg/kg/injection, schedule: Q04DX003 (ip), vehicle: water): 0 of 6
- survivor count (T/C endpoint: mean survival time, dose: 100.0 mg/kg/injection, schedule: Q04DX003 (ip), vehicle: water): 0 of 6
- survivor count (T/C endpoint: mean survival time, dose: 200.0 mg/kg/injection, schedule: Q04DX003 (ip), vehicle: water): 0 of 6

Structure (SMILES): CCN(CC)CCCC(C)NS(=O)(=O)c1cccc2c(N(C)C)cccc12 (centres undefined)
- survivor count (T/C endpoint: mean survival time, dose: 200.0 mg/kg/injection, schedule: Q01DX009 (ip), vehicle: water): 0 of 6
- survivor count (T/C endpoint: mean survival time, dose: 400.0 mg/kg/injection, schedule: Q01DX009 (ip), vehicle: water): 0 of 6

Structure (SMILES): COc1ccc2c(c1)CCC(c1ccccc1)=C2c1ccc(OCCN2CCCC2)cc1
- survivor count (T/C endpoint: mean survival time, dose: 48.0 mg/kg/injection, schedule: Q01DX009 (ip), vehicle: saline with Tween-80): 3 of 6
- survivor count (T/C endpoint: mean survival time, dose: 160.0 mg/kg/injection, schedule: Q04DX003 (ip), vehicle: saline with Tween-80): 2 of 6

Structure (SMILES): CC(C)(C)CC(C)(C)c1ccc(OCCOc2ccccc2NS(=O)(=O)c2ccc(N)cc2)cc1
- survivor count (T/C endpoint: mean survival time, dose: 400.0 mg/kg/injection, schedule: Q01DX001 (ip), vehicle: Klucel (hydroxypropylcellulose) (HPC)): 6 of 6

Structure (SMILES): CCC[CH2][Sn](=[S])[CH2]CCC
- T/C (T/C endpoint: mean survival time, dose: 3.13 mg/kg/injection, schedule: Q04DX003 (ip), vehicle: other): 135 % of control
- survivor count (T/C endpoint: mean survival time, dose: 100.0 mg/kg/injection, schedule: Q04DX003 (ip), vehicle: other): 6 of 6
- survivor count (T/C endpoint: mean survival time, dose: 200.0 mg/kg/injection, schedule: Q04DX003 (ip), vehicle: other): 6 of 6
- survivor count (T/C endpoint: mean survival time, dose: 400.0 mg/kg/injection, schedule: Q04DX003 (ip), vehicle: other): 6 of 6

Structure (SMILES): CC1(C)C(O)(C#N)C(C)(C)C1(O)C#N (centres undefined)
- survivor count (T/C endpoint: mean survival time, dose: 25.0 mg/kg/injection, schedule: Q04DX003 (ip), vehicle: saline): 0 of 6

Structure (SMILES): NC(=O)SCCCCl
- T/C [4]: 127 % of control
- survivor count [4]: 3 of 6

Structure (SMILES): COC1C(O)C(C)OC(OC2C(Oc3cccc4c(O)c5c(=O)oc6ccc(C)c7c(=O)oc(c34)c5c67)OC(C)C(O)C2O)C1O (centres undefined)
- T/C (T/C endpoint: mean survival time, dose: 40.0 mg/kg/injection, schedule: Q01DX009 (ip), vehicle: saline with Tween-80): 125 % of control

Structure (SMILES): N#C[S-].N#C[S-].N#C[S-].N#C[S-].[Co]
- survivor count (T/C endpoint: mean survival time, dose: 100.0 mg/kg/injection, schedule: Q01DX001 (ip), vehicle: saline): 0 of 6
- survivor count (T/C endpoint: mean survival time, dose: 200.0 mg/kg/injection, schedule: Q01DX001 (ip), vehicle: saline): 0 of 6
- survivor count (T/C endpoint: mean survival time, dose: 400.0 mg/kg/injection, schedule: Q01DX001 (ip), vehicle: saline): 0 of 6
